The values below come from US4178371A, “Tetrapeptide derivatives” (Reckitt & Colman Products Limited, priority 1977, dated 1979).

The test deals with rat. Kind of test: rat tail flick test (R.T.F.), intravenous administration. It is filed as in vivo. To be noted: hot water 55° as nociceptive stimulus, i.v. Here is the method: The test used for the detection of their agonist activity at opiate receptor sites is that employing the transmurally stimulates guinea pig ileum preparation described in Kosterlitz et al., Brit. J. Pharmacol, and Chemotherapy 33. 266-276 (1968). […] Exp. Ther. 125, 237 (1959) and by the rat tail flick test (intravenous administration) according to Jansen et al., Arzneim Forsch. 13, 266 (1963).
In the rat tail flick test hot water (maintained at 55°±1°C.) is used as the nociceptive stimulus.
The following are data obtained with compounds of the invention when tested by the guinea pig ileum (G.P.I., activity compared with Met enkephalin), Hendershot et al (H & F) and rat tail pressure (R.T.F) tests.
(In general: Thermal pain tests record how soon the animal reacts.)

Molecules are shown by their SMILES.

Regarding `CN1CC[C@]23c4c5ccc(O)c4O[C@H]2[C@@H](O)C=C[C@H]3[C@H]1C5` [Morphine, reference compound], it took a dose of 2.2 mg/kg to reach the 50% effect level (ED50).
